# Some entries share one result that the patent states for a list of compounds.
# Experiment: In vivo study of TLC388 in rats: metabolites in blood/plasma by HPLC
# Set-up: species or system Sprague-Dawley rats
# Conditions: rat, TLC388 80 mg/kg IV-bolus; appeared immediately, relatively abundant within 30 minutes
row,Structure (SMILES),time the metabolite continues to be observed in blood/plasma after administration of TLC388
1,"CC[C@@]1(OC(=O)[C@@H](C)O)C(=O)OCc2c1cc1n(c2=O)Cc2cc3c(CN(C)C)c(O)ccc3nc2-1 [S,R-topotecan lactate (U1), S,R-topotecan lactate]",at least 2 hours
2,"CC[C@@]1(OC(=O)[C@H](C)O)C(=O)OCc2c1cc1n(c2=O)Cc2cc3c(CN(C)C)c(O)ccc3nc2-1 [S,S-topotecan lactate (U2), S,S-topotecan lactate]",at least 2 hours

# Reference: US8168648B2, “Camptothecin derivatives and uses thereof” (Taiwan Liposome Co., Ltd., priority 2009, dated 2012)
